About 22,000 (6.9%) of roughly 320,000 compounds were called active. Inconclusive results, whose numbers are uncertain, are shown with a selection of clear calls. Calls come from the whole dose curve; as a rule, active = well fitted inhibition curve with a large enough effect; inconclusive = small, poorly fitted or top-dose-only effect, or another doubt; inactive = no such curve, though single readings can be large or run the other way. Where the call is inconclusive, the potency comes from a doubtful curve fit.
Assay: Primary qHTS for delayed death inhibitors of the malarial parasite plastid, 96 hour incubation
Conditions: P. falciparum luciferase reporter growth; series mostly up to 28.7 µM
Method in brief: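 Erythrocytes infected with luciferase-expressing P. falciparum were dispensed at 2% hematocrit and 0.05% parasitemia (final), then incubated with compounds 96 hours at 37 C in 5% CO2. Luminescence after detection reagent addition reported growth.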
With COCC1CCCN(Cc2cn(-c3ccccc3F)nc2-c2cc(C)sc2C)C1 (configuration not stated) the Potency was inconclusive: 18.5 µM [inhibitor, single point].
For CCc1cccc(NC(=O)CCNS(=O)(=O)c2cccc3nonc23)c1, the Potency was inconclusive: 18.5 µM [inhibitor, single point].
For COc1ccc(NC(=O)COC(=O)C2CC(=O)N(c3ccc(C)cc3)C2)cc1 (configuration not stated), the Potency was inconclusive: 0.0033 µM [inhibitor, full curve, poor fit].
In the case of Cc1ccc(Oc2c(CO)c(-c3ccccc3)nn2C)cc1, the Potency was “inactive”.
For CCn1cc(/C=C/C(=O)Nc2ccc(C)cc2Br)cn1, the Potency was “inactive”.
With Cc1nnc(Cn2cnc3c2c(=O)n(C)c(=O)n3C)o1 the Potency was “inactive”.
In the case of CCOC(=O)CNC(=O)CNC(=O)c1nn(-c2ccc(OC)c(OC)c2)c(=O)c2ccccc12, the Potency was “inactive”.
With Cc1ccc(C(=O)Nc2cccc3ncccc23)cc1[N+](=O)[O-] the Potency was inconclusive: 11.7 µM [inhibitor, single point].
For Cc1nc(N2CCC(C)CC2)c2c(C)c(C(=O)Nc3ccc4c(c3)OCCO4)sc2n1, the Potency was inconclusive: 0.657 µM [inhibitor, full curve].
With Cn1c(=O)[nH]c(=O)c2c1nc(N1CCCCCC1)n2CCCSc1nnnn1-c1ccccc1 the Potency was active: 2.33 µM.
With Cc1ncc(CO)c(/C=N/Nc2ccc(C(F)(F)F)cn2)c1O the Potency was active: 2.33 µM.
For Cc1c(C)n(Cc2ccc(Cl)cc2)c2ccc(C(=O)NCCN3CCOCC3)cc12, the Potency was “inactive”.
For COc1ccc2oc(C(=O)OCC(=O)NC(C)c3ccccc3)c(C)c2c1 (configuration not stated), the Potency was inconclusive: 18.5 µM [inhibitor, single point].
For Cc1cc(C)c(S(=O)(=O)Nc2ccc3c4c(cccc24)CC3)c(C)c1, the Potency was inconclusive: 18.5 µM [inhibitor, single point].
For CC1CC(C)CN(S(=O)(=O)c2ccc(NC(=O)c3ccc(=O)[nH]c3)cc2)C1 (configuration not stated), the Potency was inconclusive: 9.28 µM [inhibitor, partial curve, poor fit].
In the case of C[C@@H]1CC=C[C@H]2[C@H]1C(=O)N(Cc1ccccc1)[C@H]2c1ccc(-c2ccc(F)cc2)cc1F, the Potency was inconclusive: 13.1 µM [inhibitor, single point].
For Cc1ccc(SCC(=O)NNC(=O)c2ccc(S(C)(=O)=O)cc2)cc1, the Potency was “inactive”.
In the case of COc1cc(-c2n[nH]c(=S)n2-c2ccccc2C(F)(F)F)cc(OC)c1OC, the Potency was inconclusive: 2.94 µM [inhibitor, full curve, poor fit].
With C/C=C1/NN(CCCN2CCN(c3cccc(Cl)c3)CC2)C(=O)N1CCOc1ccccc1 the Potency was “inactive”.
In the case of N#Cc1cccc(CSc2ncnc(N)n2)c1, the Potency was “inactive”.
With COc1ccc(Cl)cc1NC(=O)CN1CCN(S(=O)(=O)N2CCOCC2)CC1 the Potency was “inactive”.
In the case of COc1ccc(NC(=O)c2ccc(OC)c(S(=O)(=O)N3CCCCC3C)c2)cn1 (configuration not stated), the Potency was inconclusive: 13.1 µM [inhibitor, single point].
With Nc1c(N(Cc2ccco2)C(=O)c2ccc(Br)cc2)c(=O)[nH]c(=O)n1Cc1ccccc1 the Potency was “inactive”.
For O=C(c1ccccc1)N1CCN(c2ncccn2)CC1, the Potency was “inactive”.
For C=C[C@@]1(C)C[C@H](OC(=O)CSC(C)(C)CNC(=O)[C@@H](N)C(C)C)[C@@]2(C)C(C)CC[C@@]3(CCC(=O)[C@@H]32)[C@H](C)[C@H]1O (some centres not stated), the Potency was “inactive”.
With Cc1cccc(C(=O)Nc2nnc(C3=COCCO3)o2)c1 the Potency was inconclusive: 13.1 µM [inhibitor, partial curve, poor fit].
In the case of CSCCCN1CCC(n2nccc2NC(=O)CCCc2ccccc2)CC1, the Potency was inconclusive: 10.4 µM [inhibitor, single point].
With C=CCOc1ccc(/C=C2\SC(=S)N(NS(=O)(=O)c3ccccc3)C2=O)cc1 the Potency was “inactive”.
For Cc1cccc(N2CCN(C(=O)c3cc(S(=O)(=O)N4CCOCC4)cn3C)CC2C)c1 (configuration not stated), the Potency was “inactive”.
With Cc1ccccc1NS(=O)(=O)c1cc(C(=O)N2CCCC2)ccc1C the Potency was “inactive”.
For CCN1C(=O)CSC1=Nc1ccccc1Cl, the Potency was “inactive”.
With CCOc1ccccc1OCCCC(=O)N1CCN(S(=O)(=O)c2ccc(Cl)cc2)CC1 the Potency was inconclusive: 11.7 µM [inhibitor, single point].
In the case of CN(C)c1nc(NN)nc(Nc2ccc(F)cc2)n1, the Potency was “inactive”.
With COCc1cc(C)nc2sc(C(=O)Nc3cccc(OC)c3)c(N)c12 the Potency was inconclusive: 18.5 µM [inhibitor, single point].
With Cc1ccc(F)c(NC(=O)/C(C#N)=C(\O)c2ccc(C(C)(C)C)cc2)c1 the Potency was “inactive”.
For Cc1c(C(=O)N2CCN(Cc3ccccc3)CC2)sc2ncnc(N3CCOCC3)c12, the Potency was inconclusive: 14.7 µM [inhibitor, single point].
With O=C(NNS(=O)(=O)c1ccc([N+](=O)[O-])cc1)c1ccncc1 the Potency was inconclusive: 18.5 µM [inhibitor, single point].
In the case of CC(=O)c1ccc(N2CCN(C(=S)NCCCN(C)C)CC2)cc1, the Potency was inconclusive: 0.185 µM [inhibitor, full curve, poor fit].
In the case of C/C=C(/C)C(=O)O[C@@H]1[C@H](OC(C)=O)c2c(ccc3ccc(=O)oc23)OC1(C)C, the Potency was inconclusive: 10.4 µM [inhibitor, single point].
In the case of NC(=O)CSc1nnc(Cn2c(=O)sc3ccccc32)n1-c1ccccc1, the Potency was inconclusive: 0.0329 µM [inhibitor, full curve, poor fit].
For C(=N\Nc1ccc2nncn2n1)/c1ccco1, the Potency was “inactive”.
With CN(C)c1ccc(/C=N/NC(=O)Cn2nnc3ccccc32)cc1 the Potency was “inactive”.
In the case of CCOc1ccc2nc(N/C(N)=N/C(=S)Nc3ccc(C)c(C)c3)nc(C)c2c1, the Potency was active: 6.57 µM.
For CCOc1ccc(N(CC(=O)NCc2ccc(F)cc2)S(=O)(=O)c2c(C)noc2C)cc1, the Potency was inconclusive: 13.1 µM [inhibitor, partial curve, poor fit].
In the case of CN(C)/C=C/C1=CC(=O)CC(C)(C)C1, the Potency was “inactive”.
In the case of COc1ccccc1N1CC(C(=O)Nc2nnc(SCc3cccnc3)s2)CC1=O (configuration not stated), the Potency was inconclusive: 8.28 µM [inhibitor, partial curve, poor fit].
For Cc1ccc(NC(=O)CC2SC(=Nc3ccc(O)cc3)NC2=O)cc1 (configuration not stated), the Potency was inconclusive: 18.5 µM [inhibitor, single point].

Source: PubChem BioAssay AID504834 (National Center for Advancing Translational Sciences (NCATS), 2011)
Potency is the fitted concentration of half-maximal effect.
